Measured values published in paper PMC11251043.
No constants are given. Whether binding was seen depends on the method and setting. In cells and extracts the contact can be indirect. Some entries that bind do so weakly or less than the wild type.

Protein sequences, listed by entry. Tags and fused reporters are not part of them. Lines headed by an entry give the natural chain unless they say otherwise; changes in a name come on top.
UniProt P16520: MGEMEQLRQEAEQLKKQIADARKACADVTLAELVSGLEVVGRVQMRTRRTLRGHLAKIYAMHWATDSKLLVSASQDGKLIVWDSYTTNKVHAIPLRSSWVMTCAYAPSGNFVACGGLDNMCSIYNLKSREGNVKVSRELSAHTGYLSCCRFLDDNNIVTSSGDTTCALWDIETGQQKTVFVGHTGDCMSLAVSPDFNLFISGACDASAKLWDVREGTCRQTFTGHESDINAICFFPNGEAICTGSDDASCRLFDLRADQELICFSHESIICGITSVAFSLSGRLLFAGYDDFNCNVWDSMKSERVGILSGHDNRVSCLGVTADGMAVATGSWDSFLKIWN
UniProt Q14344: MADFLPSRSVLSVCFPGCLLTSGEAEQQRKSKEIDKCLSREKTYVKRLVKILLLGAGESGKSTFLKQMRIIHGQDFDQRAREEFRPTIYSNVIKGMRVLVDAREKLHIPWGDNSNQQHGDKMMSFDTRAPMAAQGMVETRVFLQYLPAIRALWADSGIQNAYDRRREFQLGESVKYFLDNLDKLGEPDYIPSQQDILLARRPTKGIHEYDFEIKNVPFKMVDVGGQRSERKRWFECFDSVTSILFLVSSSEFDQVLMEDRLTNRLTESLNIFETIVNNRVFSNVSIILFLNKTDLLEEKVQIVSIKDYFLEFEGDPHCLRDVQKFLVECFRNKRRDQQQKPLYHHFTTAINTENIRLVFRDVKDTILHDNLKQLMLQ
UniProt Q03113: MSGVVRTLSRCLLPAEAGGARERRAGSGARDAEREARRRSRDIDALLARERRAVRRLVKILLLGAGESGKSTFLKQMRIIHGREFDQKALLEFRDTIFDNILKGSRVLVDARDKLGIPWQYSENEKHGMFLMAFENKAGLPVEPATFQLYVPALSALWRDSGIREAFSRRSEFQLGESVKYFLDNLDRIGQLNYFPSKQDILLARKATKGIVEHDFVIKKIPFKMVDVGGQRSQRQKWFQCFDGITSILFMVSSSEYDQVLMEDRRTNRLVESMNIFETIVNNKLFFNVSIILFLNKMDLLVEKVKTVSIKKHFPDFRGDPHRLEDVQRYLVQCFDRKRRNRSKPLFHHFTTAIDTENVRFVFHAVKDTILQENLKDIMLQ

Target: Gβ3γ9-GFP2 (Gβγ heterodimer of Gβ3 and Gγ9-GFP2) (UniProt P16520)
Test: FRET or BRET; BRET2 (TRUPATH biosensors) in HEK 293T cells transfected 1:1:1:1 with receptor, Gα-RLuc8, Gβ3 and Gγ9-GFP2; 1x HBSS + 20 mM HEPES pH 7.4, coelenterazine 400a; ratio of GFP2 (510 nm) to RLuc8 (395 nm) emission; signal before and after 5 min of ET-3 or NT

| binding | Substance |
| --- | --- |
| binds | Gα13(126)-RLuc8 (from UniProt Q14344 1-377) |
| binds | Gα12(134)-RLuc8 (from UniProt Q03113 1-381) |
